Here are results for 42 sequences from publication PMC7819943, “Rice protein-binding microarrays: a tool to detect cis-acting elements near promoter regions in rice”.

Sequences of proteins named here, by UniProt entry; tags and fusion partners are left off.
UniProt Q0JBA9, entry or part of it: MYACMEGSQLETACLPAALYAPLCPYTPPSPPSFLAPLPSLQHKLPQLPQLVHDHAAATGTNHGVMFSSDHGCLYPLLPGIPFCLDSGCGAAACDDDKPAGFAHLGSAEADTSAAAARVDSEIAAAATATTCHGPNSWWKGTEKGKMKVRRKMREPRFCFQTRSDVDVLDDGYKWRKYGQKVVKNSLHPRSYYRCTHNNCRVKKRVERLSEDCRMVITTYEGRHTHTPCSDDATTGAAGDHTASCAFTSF

Some of the results follow.

The assay addresses OsWRKY34 (Oryza sativa, UniProt Q0JBA9 1-250). Nature of the assay: protein-binding microarray (RPBM); PBS, 2% BSA, 51.3 ng/ul salmon testes DNA, 50 uM zinc acetate, 200 nM TF, 25 C, 1 h; high values mean tight binding. As to conditions: protein: recombinant; tags: N-terminal polyhistidine and DsRed monomer fusion (pET32a); label: CyDye5-dUTP incorporated in the synthesized complementary strand; 3' TTTTT single-stranded linker to array surface; dsDNA, one strand shown. In a few lines: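 The binding signal is fluorescence intensity per feature, in arbitrary units, read on an Axon 4000B scanner. Polyhistidine- and DsRed-tagged transcription factors (N-terminal fusions) from E. coli BL21-CodonPlus were purified on Ni–NTA and applied at 200 nM for 1 h at 25 °C to a double-stranded, BSA-blocked custom Agilent array in buffer with 50 µM zinc acetate.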
On to “ATTATTTGTCTAAATTTAAATTCTATACCGTGACAAATATCGGAGTCACCTAGTGCAG”, for which the binding signal was 8080 fluorescence intensity (a.u.).
On to “TCATCCACTTTGCTACGAGTTTGCTTTTTCTCTAATTCAACGGAGTCACCTAGTGCAG”, for which the binding signal is 11200 fluorescence intensity (a.u.).
With “GACATACTCTGCTAATATGCTTCTTGCTCCATTTACTTTACGGAGTCACCTAGTGCAG”, the binding signal is 8520 fluorescence intensity (a.u.).
The figure for “ACCGGACATTCCACTCCACTGCAACACCCTTCTCTTGCTCCGGAGTCACCTAGTGCAG” is 10600 fluorescence intensity (a.u.).
For the sequence “GCATCCTAACATCCCGCCGAAGGACCTTTTCAACCTCATCCGGAGTCACCTAGTGCAG”, the binding signal was 8300 fluorescence intensity (a.u.).
Turning to “TCGTGTTCTCTCTCTACCATTCCATCTTCTAGCACAACAGCGGAGTCACCTAGTGCAG”, the binding signal was 13500 fluorescence intensity (a.u.).
The figure for “GATAACATGTTGTAGTCTTCCAGGGGTGGGTGTTAGCTGTCGGAGTCACCTAGTGCAG” is 16700 fluorescence intensity (a.u.); for “CCCCTGTGTGTTCTTCTTGCTGGCTTTCTCGTCCTTGTCTCGGAGTCACCTAGTGCAG” it is 11600 fluorescence intensity (a.u.); for “GCGTGCCCTTCACATGCATGCTCGTCTCTCGGTCTCGTTCCGGAGTCACCTAGTGCAG” it is 11600 fluorescence intensity (a.u.).
The figure for “TAACAGCGGGGAGAATGGGCAAAAGTGGGAGCGGCAGCGACGGAGTCACCTAGTGCAG” is 9040 fluorescence intensity (a.u.); for “TTGGGAGTTCTGTACACAGCAACCAAAATGCATTTTCATACGGAGTCACCTAGTGCAG” it is 8490 fluorescence intensity (a.u.); for “TTACCTACGTGGAGCATCATTTTTAACCGAGGCAAATTTTCGGAGTCACCTAGTGCAG” it is 10300 fluorescence intensity (a.u.).
Take “CTCATCGCGCTACTGATCCGGTGGTTCCCGTCCGAGTGCTCGGAGTCACCTAGTGCAG”: the binding signal is 8640 fluorescence intensity (a.u.).
To “CTGTGGCATGATATGGTAGGTGGTAAAACGTTCTTTTCCACGGAGTCACCTAGTGCAG” belongs 10500 fluorescence intensity (a.u.).
The figure for “ATCTCCCTTAGCTAGCTACTCGATCTTAACAGTGAGCTTCCGGAGTCACCTAGTGCAG” is 8640 fluorescence intensity (a.u.); for “TAGTTGGGTGCGGGCGTTGTTTAATTGTTTGAGTGAAAAACGGAGTCACCTAGTGCAG” it is 9260 fluorescence intensity (a.u.); for “CGACAGACTAACCATCGCCAGCGTCAACAACGTCTTGACTCGGAGTCACCTAGTGCAG” it is 8380 fluorescence intensity (a.u.).
To “CACATGGAGAAGAATTTTCTTTTGCTTTACCAAATCGCCTCGGAGTCACCTAGTGCAG” belongs 8270 fluorescence intensity (a.u.); to “TGACACCGTTGACTTTTTTGTCTAAAGTTTAACCATTCGTCGGAGTCACCTAGTGCAG”, 32400 fluorescence intensity (a.u.).
“AATAGATGACGCCGTTGATTTTTTCTCACATGTTTGACCACGGAGTCACCTAGTGCAG”: the binding signal is 11700 fluorescence intensity (a.u.).
The figure for “CTAATACATTGCCTCGTTTTTCTCTATAGACTATCTCCAGCGGAGTCACCTAGTGCAG” is 8460 fluorescence intensity (a.u.).
Turning to “TGAATGCAAGCTTTCTTTTTCATCATGCAGCATTTGCAGTCGGAGTCACCTAGTGCAG”, the binding signal was 8330 fluorescence intensity (a.u.).
To “GAACCTGTATAAAAATCATCGTCTCCATCTCTTTTACCTCCGGAGTCACCTAGTGCAG” belongs 8260 fluorescence intensity (a.u.); to “TTTCCATCTTCTGTATACTCCTCCTGTTTCGCTGTAAATTCGGAGTCACCTAGTGCAG”, 10700 fluorescence intensity (a.u.).
On to “TGTGTTTTGGATGGATAATATTTACACTTGACGCCAACATCGGAGTCACCTAGTGCAG”, for which the binding signal is 8160 fluorescence intensity (a.u.).
Take “TCTCCCTGCCACCGACGTCACCGCCCGCCATCGACGCCTCCGGAGTCACCTAGTGCAG”: the binding signal is 9850 fluorescence intensity (a.u.).
To “GCCGTGCTGCTCTCCTCCGGCGCCATGTTGCCCAACCGCCCGGAGTCACCTAGTGCAG” belongs 8440 fluorescence intensity (a.u.).
To “ATCACCGAATAACAATACAAATTGTTGATCATAGATCTTTCGGAGTCACCTAGTGCAG” belongs 8470 fluorescence intensity (a.u.); to “ACAGTTGTGACAGTCATCACCTAGCAGAATTAATCTTGTCCGGAGTCACCTAGTGCAG”, 8430 fluorescence intensity (a.u.); to “ACCCGGTGTCGCGGCCAACCCCACCGCCACCTCCATGCCCCGGAGTCACCTAGTGCAG”, 11400 fluorescence intensity (a.u.).
The figure for “GCCGATGCTGCCGCCCCGCCTCCGCCGCCCTGCCGCCGGCCGGAGTCACCTAGTGCAG” is 11700 fluorescence intensity (a.u.); for “ATATCTTGTCGCTTTCTCAATCAACAATTTGCGTTAACTTCGGAGTCACCTAGTGCAG” it is 11200 fluorescence intensity (a.u.).
“GTCTTCCTCGTCGTCTTGCAAGTCTGCTTCCACCTCTCTTCGGAGTCACCTAGTGCAG”: the binding signal was 11800 fluorescence intensity (a.u.).
Consider “AAACGCGTCCCCATCGATATTTTCTCTCTCTCTCTCTCTCCGGAGTCACCTAGTGCAG”, for which the binding signal is 8110 fluorescence intensity (a.u.).
To “CATTTCCAGCTCCATCCTGTTTGGCAATGGTTTTTCTCTCCGGAGTCACCTAGTGCAG” belongs 11200 fluorescence intensity (a.u.).
The figure for “CTTTTTCCTATTTTCCAATTTGGTTGATTTTCCTATTTTTCGGAGTCACCTAGTGCAG” is 9580 fluorescence intensity (a.u.); for “GGTTGATTTAATTCTGTATCTTTGATTTGATCTATAGCGTCGGAGTCACCTAGTGCAG” it is 11400 fluorescence intensity (a.u.); for “TCTTTCGTTCTCTCGGCTCTGTTTCCTTCTCTCATCTTTCCGGAGTCACCTAGTGCAG” it is 13200 fluorescence intensity (a.u.).
For “CCATCTTGTTCTGACCTGTGCGCTTTTCTTTGAACCTGGCCGGAGTCACCTAGTGCAG”, the binding signal was 10000 fluorescence intensity (a.u.).
The figure for “ATTCTATTCCTACATTTGTTCCTATTGCTGTGTTTTCTCACGGAGTCACCTAGTGCAG” is 13600 fluorescence intensity (a.u.); for “GTCGGCGTCGGCGTCGGCGTCGGCGGGCGGGAGGCGGGAGCGGAGTCACCTAGTGCAG” it is 8650 fluorescence intensity (a.u.); for “GCCACAAGCTCTAATTTTGGTTAATTAATCAATTTCCTATCGGAGTCACCTAGTGCAG” it is 8400 fluorescence intensity (a.u.).
